These are yes or no findings as the source states them, for the method shown. In cells and extracts the contact can be indirect. Some entries that bind do so weakly or less than the wild type.

By UniProt entry, the sequences of proteins in these tests, tags left out.
UniProt P20963: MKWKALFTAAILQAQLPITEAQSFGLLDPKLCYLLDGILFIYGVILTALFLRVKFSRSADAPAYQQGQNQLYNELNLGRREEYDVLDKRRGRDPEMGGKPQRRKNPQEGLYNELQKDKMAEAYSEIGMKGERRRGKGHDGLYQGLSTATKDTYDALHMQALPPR
UniProt P43403: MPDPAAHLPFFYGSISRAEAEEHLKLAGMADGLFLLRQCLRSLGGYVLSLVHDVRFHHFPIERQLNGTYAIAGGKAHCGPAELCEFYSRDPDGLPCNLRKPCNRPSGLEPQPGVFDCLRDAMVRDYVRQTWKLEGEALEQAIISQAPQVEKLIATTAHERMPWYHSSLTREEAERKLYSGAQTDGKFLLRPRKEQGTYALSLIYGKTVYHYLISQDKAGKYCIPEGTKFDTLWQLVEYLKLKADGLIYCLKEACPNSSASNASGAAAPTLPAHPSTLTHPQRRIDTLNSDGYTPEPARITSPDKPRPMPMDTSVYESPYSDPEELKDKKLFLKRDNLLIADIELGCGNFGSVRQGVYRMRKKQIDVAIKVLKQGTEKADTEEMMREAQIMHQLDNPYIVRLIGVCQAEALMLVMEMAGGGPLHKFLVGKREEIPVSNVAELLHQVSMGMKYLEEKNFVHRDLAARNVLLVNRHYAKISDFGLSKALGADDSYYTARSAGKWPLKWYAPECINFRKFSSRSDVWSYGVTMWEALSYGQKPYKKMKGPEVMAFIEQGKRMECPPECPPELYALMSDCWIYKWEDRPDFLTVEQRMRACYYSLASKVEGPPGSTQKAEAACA

This experiment has as its target CD3ζ (human (endogenous in primary T cells)) (UniProt P20963). Kind of experiment: proximity ligation.

Consider “ZAP70 (from UniProt P43403 1-619) (enzyme)”, for which the binding result is “binds”.

These data come from publication doi:10.1101/2025.02.11.637442.
